# Measurements: PubChem BioAssay (NCATS)
# Some of the results follow. The main result of the screen is listed elsewhere. These columns were measured beside it and carry no call. For some of these results: Most of these compounds were active or inconclusive in the main read-out, so they are no random draw. For some of these results: Potencies come from curve fits of mixed quality, noted in brackets.
# How the values were obtained:
# [1] = NCATS anti-infectives library activity on the primary C. elegans qHTS viability assay (AID 1745855); conditions: C. elegans worm area imaging
# How it was run: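 Titration-based screen in worms: eggs hatched overnight in M9, L1 larvae fed TOP10 capsules in S medium with compound, incubated 21 °C for 7 days; fluorescent objects gated by size and intensity at days 0, 3 and 7.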
# [2] = qHTS drug screen for cell cycle checkpoint inhibitors in PARPi-resistant BRCA-mutant ovarian cancer cell lines. (AID 1963452); conditions: PEO1/OlaR viability, CellTiter-Glo luminescence, 96 h
# How it was run: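 PEO1, PEO4 and PEO1/OlaR ovarian cancer cells, 600 per well, exposed 96 h at 37C to a dilution series. Viability read by CellTiter-Glo luminescence, normalized to DMSO and empty wells; activity summarized as Z-AUC.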
# [3] = qHTS for identification of novel therapeutic agents for treatment of microphthalmiaassociated transcription factor (MiT) renal cell carcinoma (RCC) (AID 1963991); conditions: CellTiter-Glo, 48 h; for z-score: stronger effect = lower value;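 on z-score: curves scaled with 100% = DMSO viability and 0% = empty wells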
# How it was run: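 UOK109/UOK124/UOK145 (TFE3 fusions, three partners); 500 cells/well; MIPE v4.0, 1912 cpds, 11 conc.; 48 h, 37 C; CellTiter-Glo, 15 min RT; lum. Norm.: DMSO 100%, empty 0%.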
# [4] = qHTS assay for small molecule antagonists of peroxisome proliferator-activated receptor delta signaling (AID 588535); conditions: HEK293T PPARd-UAS-bla, beta-lactamase FRET ratio, 18 h; 460 nm channel;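 further: cells co-treated with a PPAR-delta agonist as stimulator during compound exposure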
# How it was run: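 Beta-lactamase reporter read-out (405 nm excitation, 460/530 nm emission) after CCF4 loading for 2 hrs at RT. HEK293T PPAR-delta-UAS-bla cells, 2% charcoal/dextran FBS, compounds for 18 hrs at 37 C. Hill fit gave IC50 and efficacy.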
# [5] = qHTS assay for small molecule antagonists of peroxisome proliferator-activated receptor gamma signaling (AID 588537); conditions: HEK293 PPARg-UAS-bla, beta-lactamase ratio, antagonist mode; measured here: W460 blue channel
# How it was run: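 Read-out: CCF4 fluorescence (ex 405, em 460/530 nm) after 2 h at RT. Cells were HEK293 carrying a UAS-bla reporter and treated 16 h at 37 C with compound plus rosiglitazone (50 nM final). Normalized to rosiglitazone and DMSO.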
# [6] = day 7, measured here: worm area, day 3
# [7] = day 7, measured here: worm number, day 3
# [8] = measured here: PEO1 parental viability
# [9] = day 7, measured here: worm number
# [10] = TFE3-RCC UOK109 viability, measured here: UOK109 Z-AUC
# [11] = TFE3-RCC viability, measured here: UOK124 Z-AUC
# [12] = TFE3-RCC viability, measured here: UOK124 cell viability
# [13] = TFE3-RCC viability, measured here: UOK145 Z-AUC
# [14] = TFE3-RCC viability, measured here: UOK145 cell viability
compound,measurement,setting,value
O=C(O)c1ccccc1O,AC50,[1]; [6],"36500 nM [rising, single point]"
same,AC50,[1]; [7],"25800 nM [rising, single point]"
COc1ccc(-c2nc3ccc(C4=NNC(=O)CC4C)cc3[nH]2)cc1 (stereo not given),AC50,[1]; [6],"115 nM [falling, full curve, poor fit]"
same,AC50,[2]; [8],"19500 nM [falling, partial curve, poor fit]"
same,AC50,[2]; measured here: PEO4 viability,"9770 nM [falling, partial curve, poor fit]"
CCOC(=O)c1c(CSc2ccccc2)n(C)c2cc(Br)c(O)c(CN(C)C)c12,AC50,[1]; [9],"25800 nM [falling, single point]"
same,AC50,[1]; [6],"20500 nM [falling, single point]"
same,AC50,[1]; [7],"45900 nM [falling, single point]"
same,AC50,[2]; [8],"24500 nM [falling, single point]"
same,AC50,[2]; measured here: PEO4 viability,"24500 nM [falling, single point]"
same,z-score,[3]; [10],0.726
same,z-score,[3]; [11],0.34
same,AC50,[3]; [12],"20900 nM [falling, partial curve]"
same,z-score,[3]; [13],-0.267
CC(C)C[C@H](NC(=O)[C@@H](NC(=O)c1cccc(-c2ccccc2)n1)[C@@H](C)O)B(O)O,AC50,[1]; [9],"258 nM [falling, full curve, poor fit]"
same,AC50,[1]; [6],"145 nM [falling, full curve, poor fit]"
same,AC50,[2]; [8],"30.1 nM [falling, full curve]"
same,AC50,[2]; measured here: PEO4 viability,"9.5 nM [falling, full curve]"
same,AC50,[3]; [12],"209 nM [falling, full curve]"
same,AC50,[3]; [14],"46.9 nM [falling, full curve]"
Cc1noc2c1-c1ccccc1C(c1ccc(Cl)cc1)=N[C@H]2CC(N)=O,AC50,[1]; [9],"1030 nM [falling, partial curve, poor fit]"
same,AC50,[1]; [6],"2900 nM [falling, full curve, poor fit]"
same,AC50,[2]; [8],"4360 nM [falling, partial curve]"
same,AC50,[2]; measured here: PEO4 viability,"1380 nM [falling, full curve]"
O=c1[nH]cc(F)c(=O)[nH]1,max response,[4],64.2%
same,AC50,[5],"44700 nM [rising, single point]"
same,AC50,[1]; [9],"916 nM [falling, full curve]"
same,AC50,[1]; [6],"20.5 nM [falling, full curve, poor fit]"
same,AC50,[1]; [7],"115 nM [falling, full curve, poor fit]"
same,z-score,[3]; [10],0.0573
same,z-score,[3]; [11],0.734
same,z-score,[3]; [13],0.133
same,AC50,[3]; [14],"10500 nM [falling, partial curve]"
O=c1cc(-c2ccc(O)c(O)c2)oc2cc(O[C@@H]3O[C@H](CO)[C@@H](O)[C@H](O)[C@H]3O)cc(O)c12,AC50,[1]; [9],"29000 nM [rising, single point]"
same,AC50,[1]; [7],"40900 nM [rising, single point]"
C[C@H](NC(=O)[C@@H](O)c1cc(F)cc(F)c1)C(=O)N[C@@H]1C(=O)N(C)c2ccccc2-c2ccccc21,AC50,[1]; [9],"183 nM [falling, full curve]"
same,AC50,[1]; [6],"258 nM [falling, partial curve, poor fit]"
same,z-score,[3]; [10],0.0978
same,z-score,[3]; [11],0.56
same,z-score,[3]; [13],0.114
same,AC50,[3]; [14],"4180 nM [falling, partial curve, poor fit]"
CS(=O)(=O)c1ccc(-c2nnc(/C=C/c3nnc(-c4ccc(C#N)cc4)o3)n2-c2ccccc2Cl)nc1,AC50,[1]; [7],"1150 nM [rising, partial curve, poor fit]"
same,AC50,[2]; measured here: PEO4 viability,"15500 nM [falling, single point]"
CC(C)C[C@H](NC(=O)[C@H](Cc1ccccc1)NC(=O)c1cnccn1)B(O)O,AC50,[1]; [9],"1150 nM [falling, partial curve, poor fit]"
same,AC50,[1]; [6],"11500 nM [falling, partial curve]"
same,AC50,[1]; [7],"81.6 nM [falling, full curve, poor fit]"
same,AC50,[2]; [8],"8.7 nM [falling, full curve]"
same,AC50,[2]; measured here: PEO4 viability,"3.9 nM [falling, full curve]"
same,AC50,[3]; [12],"59 nM [falling, full curve]"
same,AC50,[3]; [14],"16.6 nM [falling, full curve]"
C=C[C@@H]1C[C@]1(NC(=O)[C@@H]1C[C@@H](Oc2ncc(OC)c3ccc(Cl)cc23)CN1C(=O)[C@@H](NC(=O)OC(C)(C)C)C(C)(C)C)C(=O)NS(=O)(=O)C1CC1,AC50,[1]; [9],"5150 nM [falling, partial curve]"
same,AC50,[1]; [6],"183 nM [falling, full curve, poor fit]"
Cc1cc(OCc2nnc(SC3CCCC3)n2-c2cccnc2)ccc1-c1ccc(S(C)(=O)=O)cc1,AC50,[1]; [7],"8160 nM [falling, partial curve, poor fit]"
same,AC50,[2]; [8],"38.9 nM [falling, full curve]"
same,AC50,[2]; measured here: PEO4 viability,"195 nM [falling, full curve, poor fit]"

# 4 records drawn at random from the list so far, as already listed:
compound,measurement,setting,value
CC(C)C[C@H](NC(=O)[C@@H](NC(=O)c1cccc(-c2ccccc2)n1)[C@@H](C)O)B(O)O,AC50,[1]; [9],"258 nM [falling, full curve, poor fit]"
CCOC(=O)c1c(CSc2ccccc2)n(C)c2cc(Br)c(O)c(CN(C)C)c12,z-score,[3]; [10],0.726
COc1ccc(-c2nc3ccc(C4=NNC(=O)CC4C)cc3[nH]2)cc1 (stereo not given),AC50,[2]; measured here: PEO4 viability,"9770 nM [falling, partial curve, poor fit]"
CC(C)C[C@H](NC(=O)[C@H](Cc1ccccc1)NC(=O)c1cnccn1)B(O)O,AC50,[2]; measured here: PEO4 viability,"3.9 nM [falling, full curve]"
